# From PMC4973933
# Changes are numbered by the printed parent chain. Numbers in names are those of the source. No constants are given. Whether binding was seen depends on the method and setting. Binding calls can cover weak binding; strength is not graded here.
# B1: pvr2/eIF4E1 (pvr2^+) with the single mutation A15V (protein, UniProt A0A1U8GR65 1-228)
# chain: MATAEMEKTTTFDEVEKVKLNANEADDEVEEGEIVEETDDTTSYLSKEIATKHPLEHSWTFWFDNPVAKSKQAAWGSSLRNVYTFSTVEDFWGAYNNIHHPSKLVVGADLHCFKHKIEPKWEDPVCANGGTWKMSFSKGKSDTSWLYTLLAMIGHQFDHEDEICGAVVSVRGKGEKISLWTKNAANETAQVSIGKQWKQFLDYSDSVGFIFHDDAKRLDRNAKNRYTV
# B2: pvr2/eIF4E1 (pvr2^+) with the single mutation D40G (protein, UniProt A0A1U8GR65 1-228)
# chain: B1 chain with V15A, D40G
# B3: pvr2/eIF4E1 (pvr2^+) with the single mutation V105I (protein, UniProt A0A1U8GR65 1-228)
# chain: B1 chain with V15A, V105I
# B4: pvr2/eIF4E1 (pvr2^+) with the single mutation K71R (protein, UniProt A0A1U8GR65 1-228)
# chain: B1 chain with V15A, K71R
# Biological target: VPg of Potato virus Y, avirulent isolate LYE84 (Potato virus Y (isolate LYE84))
# Assay: two-hybrid; Matchmaker GAL4 two-hybrid system 3; eIF4E1 variants fused to the GAL4 activation domain (pGADT7, AH109), VPg fused to the GAL4 binding domain (pGBKT7, Y187); after mating, growth on -LWH medium at 30°C, checked 2 to 7 days after spotting; growth as percent of pvr2^+ with VPg-PVY
row,Binder,binding
1,B1,binds
2,B2,binds
3,B3,binds
4,B4,binds
